In PubChem BioAssay AID256 (DTP/NCI, 2004):
The list is a part of this screen's results and no random one: it is rich in T/C values a quarter to a half above the control, in often repeated tests (any T/C) and in doses without a T/C. Further doses and runs are listed elsewhere. T/C: endpoint of the treated group in % of that of the vehicle group. Some entries give survivors of the animals treated and no T/C: the source holds a T/C of zero for them, seemingly a mark for toxic or unscored doses. Survivors were counted at the toxicity check, usually on the fifth day, unless a day is given; later deaths do not show. Schedules are NCI's codes, read here as Q, the interval in days (D) or hours (H), X, the number of doses. For survival time, the PubChem record calls one and a half times the control and up active, and a quarter to a half above the control has no call in these data; cut-offs in other NCI protocols can differ. Some T/C values carry the count of animals alive at the toxicity check (mostly the fifth day); where none is given, no animal had died by that day. Some doses were run more than once; their values stand side by side, smallest first. Marks such as (2×) stand for listed records that agree.

System: CD2F1 mice, L1210 leukemia ip, survival T/C
Experiment: NCI In Vivo Anticancer Drug Screen. Data for tumor model L1210 Leukemia (intraperitoneal) in CD2F1 (CDF1) mice
Conditions: T/C endpoint: mean survival time, higher T/C = longer survival
Method in brief: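 Implant tumor; dose compound or vehicle; measure endpoint in both groups; report treated divided by control.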

[1] = dose: 8.0 mg/kg/injection, schedule: Q01DX009 (ip), vehicle: saline + alcohol
[2] = dose: 16.0 mg/kg/injection, schedule: Q01DX009 (ip), vehicle: saline + alcohol

`O=NN(CCCl)C(=O)NCCCl` was tested, and the T/C (dose: 2.0 mg/kg/injection, schedule: Q01DX009 (ip), vehicle: Klucel (hydroxypropylcellulose) (HPC)) was 128, 135, 146, 161 % of control, the T/C (dose: 2.0 mg/kg/injection, schedule: Q01DX009 (ip), vehicle: saline + alcohol, evaluated on day 30) was 148, 156, 157, 161, 162, 164 % of control and the T/C (dose: 2.0 mg/kg/injection, schedule: Q01DX009 (ip), vehicle: saline + alcohol, evaluated on day 45) was 114 % of control. The T/C (dose: 2.0 mg/kg/injection, schedule: Q01DX009 (ip), vehicle: saline, evaluated on day 30) was 137, 141, 161, 163, 170, 185, 186 (2×), 194, 202 [5 of 6 alive], 204 % of control, the T/C (dose: 2.0 mg/kg/injection, schedule: Q01DX009 (ip), vehicle: saline, evaluated on day 60) was 160, 167, 174, 179 % of control and the T/C (dose: 4.0 mg/kg/injection, schedule: Q01DX009 (ip), vehicle: Klucel (hydroxypropylcellulose) (HPC)) was 169, 173 [5 of 6 alive], 194, 218 % of control. For the same compound, the T/C (dose: 4.0 mg/kg/injection, schedule: Q01DX009 (ip), vehicle: saline + alcohol, evaluated on day 30) was 194, 215, 226, 229, 246, 260 % of control, the T/C (dose: 4.0 mg/kg/injection, schedule: Q01DX009 (ip), vehicle: saline + alcohol, evaluated on day 45) was 128 % of control [4 of 6 alive] and the T/C (dose: 4.0 mg/kg/injection, schedule: Q01DX009 (ip), vehicle: saline, evaluated on day 30) was 184, 206, 229, 232, 236, 243, 253, 257, 262, 289, 292 % of control. The T/C (dose: 4.0 mg/kg/injection, schedule: Q01DX009 (ip), vehicle: saline, evaluated on day 60) was 198, 223, 234, 263 % of control, the T/C (dose: 5.0 mg/kg/injection, schedule: Q01DX001 (ip), vehicle: DMSO) was 127 % of control and the T/C (dose: 5.0 mg/kg/injection, schedule: Q01DX001 (ip), vehicle: saline + alcohol, evaluated on day 5) was 122 % of control. For the same compound, the T/C (dose: 5.0 mg/kg/injection, schedule: Q01DX001 (ip), vehicle: saline + alcohol, evaluated on day 8) was 120 % of control, the T/C (dose: 5.0 mg/kg/injection, schedule: Q01DX001 (ip), vehicle: saline + alcohol, evaluated on day 30) was 121 % of control and the T/C (dose: 5.0 mg/kg/injection, schedule: Q01DX001 (ip), vehicle: saline + alcohol, evaluated on day 45) was 133 % of control. For the same compound, the T/C (dose: 5.0 mg/kg/injection, schedule: Q01DX001 (ip), vehicle: saline) was 132 % of control, the T/C (dose: 7.5 mg/kg/injection, schedule: Q01DX001 (ip), vehicle: saline + alcohol, evaluated on day 30) was 123 and 127 % of control and the T/C (dose: 7.5 mg/kg/injection, schedule: Q01DX001 (ip), vehicle: saline + alcohol, evaluated on day 40) was 118 and 147 % of control. For the same compound, the T/C (dose: 8.0 mg/kg/injection, schedule: Q01DX001 (ip), vehicle: saline + alcohol, evaluated on day 5) was 115, 131, 146, 147 (2×), 150, 155, 160 % of control, the T/C (dose: 8.0 mg/kg/injection, schedule: Q01DX001 (ip), vehicle: saline + alcohol, evaluated on day 30) was 122 and 127 % of control and the T/C (dose: 8.0 mg/kg/injection, schedule: Q01DX001 (ip), vehicle: saline + alcohol, evaluated on day 45) was 125 % of control. The T/C (dose: 8.0 mg/kg/injection, schedule: Q01DX009 (ip), vehicle: Klucel (hydroxypropylcellulose) (HPC)) was 184 [5 of 6 alive], 252, 311, 319 % of control, the T/C [1] was 143, 231, 232, 297, 311, 337 % of control and the survivor count [1] was 3 of 6. For the same compound, the T/C (dose: 8.0 mg/kg/injection, schedule: Q01DX009 (ip), vehicle: saline, evaluated on day 30) was 159 (2×), 183, 233, 239, 255, 265, 288, 323, 325 % of control (2×), the T/C (dose: 8.0 mg/kg/injection, schedule: Q01DX009 (ip), vehicle: saline, evaluated on day 60) was 427, 491, 525, 549 % of control and the T/C (dose: 9.48 mg/kg/injection, schedule: Q01DX001 (ip), vehicle: saline + alcohol) was 141 % of control. For the same compound, the T/C (dose: 10.0 mg/kg/injection, schedule: Q01DX001 (ip), vehicle: Klucel (hydroxypropylcellulose) (HPC)) was 130 % of control, the T/C (dose: 10.0 mg/kg/injection, schedule: Q01DX001 (ip), vehicle: other) was 133 % of control and the T/C (dose: 10.0 mg/kg/injection, schedule: Q01DX001 (ip), vehicle: saline + alcohol, evaluated on day 5) was 156 % of control. For the same compound, the T/C (dose: 10.0 mg/kg/injection, schedule: Q01DX001 (ip), vehicle: saline + alcohol, evaluated on day 6) was 166 % of control, the T/C (dose: 10.0 mg/kg/injection, schedule: Q01DX001 (ip), vehicle: saline + alcohol, evaluated on day 8) was 154 % of control and the T/C (dose: 10.0 mg/kg/injection, schedule: Q01DX001 (ip), vehicle: saline + alcohol, evaluated on day 30) was 150 % of control. The T/C (dose: 10.0 mg/kg/injection, schedule: Q01DX001 (ip), vehicle: saline + alcohol, evaluated on day 45) was 155 % of control, the T/C (dose: 10.0 mg/kg/injection, schedule: Q01DX001 (ip), vehicle: saline, evaluated on day 5) was 114, 143, 150, 151, 220 % of control and the T/C (dose: 10.0 mg/kg/injection, schedule: Q01DX001 (ip), vehicle: saline, evaluated on day 30) was 150 (2×), 153, 182 % of control. For the same compound, the T/C (dose: 10.0 mg/kg/injection, schedule: Q01DX001 (ip), vehicle: saline, evaluated on day 60) was 219 % of control, the T/C (dose: 15.0 mg/kg/injection, schedule: Q01DX001 (ip), vehicle: distilled water + alcohol) was 141 % of control and the T/C (dose: 15.0 mg/kg/injection, schedule: Q01DX001 (ip), vehicle: saline + alcohol, evaluated on day 30) was 151 and 156 % of control. For the same compound, the T/C (dose: 15.0 mg/kg/injection, schedule: Q01DX001 (ip), vehicle: saline + alcohol, evaluated on day 40) was 129 and 203 % of control, the T/C (dose: 16.0 mg/kg/injection, schedule: Q01DX001 (ip), vehicle: saline + alcohol, evaluated on day 5) was 127, 163, 179, 186, 203, 228, 255, 260, 325, 329, 364 % of control and the T/C (dose: 16.0 mg/kg/injection, schedule: Q01DX001 (ip), vehicle: saline + alcohol, evaluated on day 6) was 186 % of control. For the same compound, the T/C (dose: 16.0 mg/kg/injection, schedule: Q01DX001 (ip), vehicle: saline + alcohol, evaluated on day 30) was 139 and 142 % of control, the T/C (dose: 16.0 mg/kg/injection, schedule: Q01DX001 (ip), vehicle: saline + alcohol, evaluated on day 45) was 168 % of control and the T/C (dose: 16.0 mg/kg/injection, schedule: Q01DX009 (ip), vehicle: Klucel (hydroxypropylcellulose) (HPC)) was 117, 120, 130, 147 % of control. For the same compound, the T/C (dose: 16.0 mg/kg/injection, schedule: Q01DX009 (ip), vehicle: other) was 131 and 136 % of control, the T/C [2] was 108 [5 of 6 alive], 123, 125, 127, 132, 138 % of control and the survivor count [2] was 0 of 6. For the same compound, the T/C (dose: 16.0 mg/kg/injection, schedule: Q01DX009 (ip), vehicle: saline, evaluated on day 30) was 114 (2×), 118, 134, 135 (2×), 141, 145, 147, 160, 296 % of control, the T/C (dose: 16.0 mg/kg/injection, schedule: Q01DX009 (ip), vehicle: saline, evaluated on day 60) was 145, 147, 160, 252 % of control and the T/C (dose: 20.0 mg/kg/injection, schedule: Q01DX001 (ip), vehicle: saline + alcohol, evaluated on day 5) was 196 % of control. For the same compound, the T/C (dose: 20.0 mg/kg/injection, schedule: Q01DX001 (ip), vehicle: saline + alcohol, evaluated on day 6) was 221 % of control, the T/C (dose: 20.0 mg/kg/injection, schedule: Q01DX001 (ip), vehicle: saline + alcohol, evaluated on day 8) was 205 % of control and the T/C (dose: 20.0 mg/kg/injection, schedule: Q01DX001 (ip), vehicle: saline + alcohol, evaluated on day 30) was 197 % of control. For the same compound, the T/C (dose: 20.0 mg/kg/injection, schedule: Q01DX001 (ip), vehicle: saline + alcohol, evaluated on day 45) was 181 % of control, the T/C (dose: 20.0 mg/kg/injection, schedule: Q01DX001 (ip), vehicle: saline + alcohol, evaluated on day 60) was 172, 400, 581 % of control and the T/C (dose: 20.0 mg/kg/injection, schedule: Q01DX001 (ip), vehicle: saline, evaluated on day 5) was 204, 211, 541 % of control. For the same compound, the T/C (dose: 20.0 mg/kg/injection, schedule: Q01DX001 (ip), vehicle: saline, evaluated on day 7) was 198 % of control, the T/C (dose: 20.0 mg/kg/injection, schedule: Q01DX001 (ip), vehicle: saline, evaluated on day 30) was 195, 202, 207, 325 % of control and the T/C (dose: 20.0 mg/kg/injection, schedule: Q01DX001 (ip), vehicle: saline, evaluated on day 60) was 533 % of control. For the same compound, the T/C (dose: 30.0 mg/kg/injection, schedule: Q01DX001 (ip), vehicle: saline + alcohol, evaluated on day 30) was 157 and 221 % of control, the T/C (dose: 30.0 mg/kg/injection, schedule: Q01DX001 (ip), vehicle: saline + alcohol, evaluated on day 40) was 194 and 459 % of control and the T/C (dose: 30.0 mg/kg/injection, schedule: Q01DX001 (ip), vehicle: saline + alcohol, evaluated on day 60) was 208, 659, 804 % of control. The T/C (dose: 32.0 mg/kg/injection, schedule: Q01DX001 (ip), vehicle: saline + alcohol, evaluated on day 5) was 168, 177, 317, 412, 505, 511, 523, 542, 555, 660, 669, 686 % of control, the T/C (dose: 32.0 mg/kg/injection, schedule: Q01DX001 (ip), vehicle: saline + alcohol, evaluated on day 6) was 212 % of control and the T/C (dose: 32.0 mg/kg/injection, schedule: Q01DX001 (ip), vehicle: saline + alcohol, evaluated on day 30) was 164 and 263 % of control. The T/C (dose: 32.0 mg/kg/injection, schedule: Q01DX001 (ip), vehicle: saline + alcohol, evaluated on day 45) was 360 % of control and the T/C (dose: 32.0 mg/kg/injection, schedule: Q04DX003 (ip), vehicle: saline + alcohol) was 148 % of control.
